Paper PMC3303835
Results are given in words; binding and its absence hold for the method and conditions named. In cells and extracts the contact can be indirect. Some entries that bind do so weakly or less than the wild type. Where a sequence is shown, tags or fusion partners need not be part of it.

Molecular target: T1, GFP-EB1 (tyrosinated EB1 with GFP at the N-terminus) (mouse) (UniProt Q61166)
T1 sequence: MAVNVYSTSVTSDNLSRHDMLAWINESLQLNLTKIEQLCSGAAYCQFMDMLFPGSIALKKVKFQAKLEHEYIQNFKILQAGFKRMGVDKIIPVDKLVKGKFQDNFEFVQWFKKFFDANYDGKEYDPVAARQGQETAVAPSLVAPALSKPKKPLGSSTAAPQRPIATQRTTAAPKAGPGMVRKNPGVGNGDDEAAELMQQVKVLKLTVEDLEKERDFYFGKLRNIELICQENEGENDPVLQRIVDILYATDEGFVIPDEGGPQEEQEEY
Assay: co-IP; NIH3T3 lysate 48 h after transfection; mouse anti-GFP on protein G beads, 90 min at 4°C, 50 mM Tris pH 8.0, 150 mM NaCl, 0.04% deoxycholate, 0.8% Triton X-100, 8% glycerol; blot with anti-Tyr EB1

B1: endogenous EB1 (protein, UniProt Q61166 1-268)
chain: T1 sequence
In the case of B1, the binding is reported as “binds”.
